Assay results as given in patent publication US20140275078A1, “COMPOSITIONS AND METHODS FOR TREATING CANCER USING PI3KB INHIBITOR AND MAPK PATHWAY INHIBITOR, INCLUDING MEK AND RAF INHIBITORS” (SANOFI, priority 2011, published 2014).
Some entries share one result that the patent states for a list of compounds. At least one structure is not confirmed: it was looked up by name or label, or the drawing left a doubt.

Test system: human primary colon tumors CR-IGR-014P
Conditions: Ex. 8; PO d20-36; Cpd (I) 150 mg/kg bid, Cpd (2a) 10 mg/kg qd, alone or combined; listed as compound (2a)

SMILES: Cn1cnc2c(F)c(Nc3ccc(Br)cc3Cl)c(C(=O)NOCCO)cc21 [Compound (2a), 1H-Benzimidazole-6-carboxamide, 5-[(4-bromo-2-chlorophenyl)amino]-4-fluoro-N-(2-hydroxyethoxy)-1-methyl]
- ΔT/ΔC % (day 36): > 40%
